Experimental data as given in article PMC4707158.

Protein sequences, listed by entry. Tags and fused reporters are not part of them.
UniProt Q9H4L4: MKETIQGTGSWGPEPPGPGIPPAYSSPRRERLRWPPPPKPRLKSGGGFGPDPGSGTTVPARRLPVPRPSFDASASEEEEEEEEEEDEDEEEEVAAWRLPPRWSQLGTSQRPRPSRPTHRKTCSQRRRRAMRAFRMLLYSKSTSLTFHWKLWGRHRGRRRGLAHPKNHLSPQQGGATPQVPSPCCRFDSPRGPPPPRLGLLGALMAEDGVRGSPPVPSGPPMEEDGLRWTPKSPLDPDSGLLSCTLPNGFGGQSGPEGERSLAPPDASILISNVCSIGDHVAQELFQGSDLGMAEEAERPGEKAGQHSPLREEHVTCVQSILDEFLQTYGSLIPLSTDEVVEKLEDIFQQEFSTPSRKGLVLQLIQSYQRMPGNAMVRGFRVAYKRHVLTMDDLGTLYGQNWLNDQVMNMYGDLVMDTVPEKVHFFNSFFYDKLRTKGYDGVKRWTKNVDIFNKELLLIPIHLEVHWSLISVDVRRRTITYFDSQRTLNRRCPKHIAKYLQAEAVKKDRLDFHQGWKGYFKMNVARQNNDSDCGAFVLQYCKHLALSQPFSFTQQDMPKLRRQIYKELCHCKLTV

B1: GTF3C4 (protein, UniProt Q9UKN8 1-822)
chain: MNTADQARVGPADDGPAPSGEEEGEGGGEAGGKEPAADAAPGPSAAFRLMVTRREPAVKLQYAVSGLEPLAWSEDHRVSVSTARSIAVLELICDVHNPGQDLVIHRTSVPAPLNSCLLKVGSKTEVAECKEKFAASKDPTVSQTFMLDRVFNPEGKALPPMRGFKYTSWSPMGCDANGRCLLAALTMDNRLTIQANLNRLQWVQLVDLTEIYGERLYETSYRLSKNEAPEGNLGDFAEFQRRHSMQTPVRMEWSGICTTQQVKHNNECRDVGSVLLAVLFENGNIAVWQFQLPFVGKESISSCNTIESGITSPSVLFWWEYEHNNRKMSGLIVGSAFGPIKILPVNLKAVKGYFTLRQPVILWKEMDQLPVHSIKCVPLYHPYQKCSCSLVVAARGSYVFWCLLLISKAGLNVHNSHVTGLHSLPIVSMTADKQNGTVYTCSSDGKVRQLIPIFTDVALKFEHQLIKLSDVFGSVRTHGIAVSPCGAYLAIITTEGMINGLHPVNKNYQVQFVTLKTFEEAAAQLLESSVQNLFKQVDLIDLVRWKILKDKHIPQFLQEALEKKIESSGVTYFWRFKLFLLRILYQSMQKTPSEALWKPTHEDSKILLVDSPGMGNADDEQQEEGTSSKQVVKQGLQERSKEGDVEEPTDDSLPTTGDAGGREPMEEKLLEIQGKIEAVEMHLTREHMKRVLGEVYLHTWITENTSIPTRGLCNFLMSDEEYDDRTARVLIGHISKKMNKQTFPEHCSLCKEILPFTDRKQAVCSNGHIWLRCFLTYQSCQSLIYRRCLLHDSIARHPAPEDPDWIKRLLQSPCPFCDSPVF
B2: ELAC2 (protein, UniProt Q9BQ52 17-826)
chain: SQGRTISQAPARRERPRKDPLRHLRTREKRGPSGCSGGPNTVYLQVVAAGSRDSGAALYVFSEFNRYLFNCGEGVQRLMQEHKLKVARLDNIFLTRMHWSNVGGLSGMILTLKETGLPKCVLSGPPQLEKYLEAIKIFSGPLKGIELAVRPHSAPEYEDETMTVYQIPIHSEQRRGKHQPWQSPERPLSRLSPERSSDSESNENEPHLPHGVSQRRGVRDSSLVVAFICKLHLKRGNFLVLKAKEMGLPVGTAAIAPIIAAVKDGKSITHEGREILAEELCTPPDPGAAFVVVECPDESFIQPICENATFQRYQGKADAPVALVVHMAPASVLVDSRYQQWMERFGPDTQHLVLNENCASVHNLRSHKIQTQLNLIHPDIFPLLTSFRCKKEGPTLSVPMVQGECLLKYQLRPRREWQRDAIITCNPEEFIVEALQLPNFQQSVQEYRRSAQDGPAPAEKRSQYPEIIFLGTGSAIPMKIRNVSATLVNISPDTSLLLDCGEGTFGQLCRHYGDQVDRVLGTLAAVFVSHLHADHHTGLPSILLQRERALASLGKPLHPLLVVAPNQLKAWLQQYHNQCQEVLHHISMIPAKCLQEGAEISSPAVERLISSLLRTCDLEEFQTCLVRHCKHAFGCALVHTSGWKVVYSGDTMPCEALVRMGKDATLLIHEATLEDGLEEEAVEKTHSTTSQAISVGMRMNAEFIMLNHFSQRYAKVPLFSPNFSEKVGVAFDHMKVCFGDFPTMPKLIPPLKALFAGDIEEMEERREKRELRQVRAALLSRELAGGLEDGEPQQKRAHTEEPQAKKVRAQ
B3: PFKP (protein, UniProt Q01813 1-784)
chain: MDADDSRAPKGSLRKFLEHLSGAGKAIGVLTSGGDAQGMNAAVRAVVRMGIYVGAKVYFIYEGYQGMVDGGSNIAEADWESVSSILQVGGTIIGSARCQAFRTREGRLKAACNLLQRGITNLCVIGGDGSLTGANLFRKEWSGLLEELARNGQIDKEAVQKYAYLNVVGMVGSIDNDFCGTDMTIGTDSALHRIIEVVDAIMTTAQSHQRTFVLEVMGRHCGYLALVSALACGADWVFLPESPPEEGWEEQMCVKLSENRARKKRLNIIIVAEGAIDTQNKPITSEKIKELVVTQLGYDTRVTILGHVQRGGTPSAFDRILASRMGVEAVIALLEATPDTPACVVSLNGNHAVRLPLMECVQMTQDVQKAMDERRFQDAVRLRGRSFAGNLNTYKRLAIKLPDDQIPKTNCNVAVINVGAPAAGMNAAVRSAVRVGIADGHRMLAIYDGFDGFAKGQIKEIGWTDVGGWTGQGGSILGTKRVLPGKYLEEIATQMRTHSINALLIIGGFEAYLGLLELSAAREKHEEFCVPMVMVPATVSNNVPGSDFSIGADTALNTITDTCDRIKQSASGTKRRVFIIETMGGYCGYLANMGGLAAGADAAYIFEEPFDIRDLQSNVEHLTEKMKTTIQRGLVLRNESCSENYTTDFIYQLYSEEGKGVFDCRKNVLGHMQQGGAPSPFDRNFGTKISARAMEWITAKLKEARGRGKKFTTDDSICVLGISKRNVIFQPVAELKKQTDFEHRIPKEQWWLKLRPLMKILAKYKASYDVSDSGQLEHVQPWSV
B4: GPHN (protein, UniProt Q9NQX3 1-736)
chain: MATEGMILTNHDHQIRVGVLTVSDSCFRNLAEDRSGINLKDLVQDPSLLGGTISAYKIVPDEIEEIKETLIDWCDEKELNLILTTGGTGFAPRDVTPEATKEVIEREAPGMALAMLMGSLNVTPLGMLSRPVCGIRGKTLIINLPGSKKGSQECFQFILPALPHAIDLLRDAIVKVKEVHDELEDLPSPPPPLSPPPTTSPHKQTEDKGVQCEEEEEEKKDSGVASTEDSSSSHITAAAIAAKIPDSIISRGVQVLPRDTASLSTTPSESPRAQATSRLSTASCPTPKVQSRCSSKENILRASHSAVDITKVARRHRMSPFPLTSMDKAFITVLEMTPVLGTEIINYRDGMGRVLAQDVYAKDNLPPFPASVKDGYAVRAADGPGDRFIIGESQAGEQPTQTVMPGQVMRVTTGAPIPCGADAVVQVEDTELIRESDDGTEELEVRILVQARPGQDIRPIGHDIKRGECVLAKGTHMGPSEIGLLATVGVTEVEVNKFPVVAVMSTGNELLNPEDDLLPGKIRDSNRSTLLATIQEHGYPTINLGIVGDNPDDLLNALNEGISRADVIITSGGVSMGEKDYLKQVLDIDLHAQIHFGRVFMKPGLPTTFATLDIDGVRKIIFALPGNPVSAVVTCNLFVVPALRKMQGILDPRPTIIKARLSCDVKLDPRPEYHRCILTWHHQEPLPWAQSTGNQMSSRLMSMRSANGLLMLPPKTEQYVELHKGEVVDVMVIGRL
B5: TARS (protein, UniProt P26639 1-723)
chain: MFEEKASSPSGKMGGEEKPIGAGEEKQKEGGKKKNKEGSGDGGRAELNPWPEYIYTRLEMYNILKAEHDSILAEKAEKDSKPIKVTLPDGKQVDAESWKTTPYQIACGISQGLADNTVIAKVNNVVWDLDRPLEEDCTLELLKFEDEEAQAVYWHSSAHIMGEAMERVYGGCLCYGPPIENGFYYDMYLEEGGVSSNDFSSLEALCKKIIKEKQAFERLEVKKETLLAMFKYNKFKCRILNEKVNTPTTTVYRCGPLIDLCRGPHVRHTGKIKALKIHKNSSTYWEGKADMETLQRIYGISFPDPKMLKEWEKFQEEAKNRDHRKIGRDQELYFFHELSPGSCFFLPKGAYIYNALIEFIRSEYRKRGFQEVVTPNIFNSRLWMTSGHWQHYSENMFSFEVEKELFALKPMNCPGHCLMFDHRPRSWRELPLRLADFGVLHRNELSGALTGLTRVRRFQQDDAHIFCAMEQIEDEIKGCLDFLRTVYSVFGFSFKLNLSTRPEKFLGDIEVWDQAEKQLENSLNEFGEKWELNSGDGAFYGPKIDIQIKDAIGRYHQCATIQLDFQLPIRFNLTYVSHDGDDKKRPVIVHRAILGSVERMIAILTENYGGKWPFWLSPRQVMVVPVGPTCDEYAQKVRQQFHDAKFMADIDLDPGCTLNKKIRNAQLAQYNFILVVGEKEKISGTVNIRTRDNKVHGERTISETIERLQQLKEFRSKQAEEEF

target: FLAG-SENP3 (UniProt Q9H4L4); assay: affinity purification with mass spectrometry; 293T cells transfected with vector FLAG-pcDNA or FLAG-SENP3; co-IP with anti-FLAG antibody; gel silver stained, bands of approximately 100 kDa examined by MS; Table 1 lists the hits that were also increased in lysate of SENP3-transfected cells

Row | binding | Binder
1 | binds | B1
2 | binds | B2
3 | binds | B3
4 | binds | B4
5 | binds | B5

Results are given in words; binding and its absence hold for the method and conditions named. In cells and extracts the contact can be indirect. Here binding means that the protein was enriched with, or labelled near, the bait; the list need not be complete.
